Test results reported in article PMC8762250, “Identification of Novel Chemical Scaffolds that Inhibit the Growth of Mycobacterium tuberculosis in Macrophages” (Frontiers in Pharmacology, 2022).

Assay: Macrophage viability in the same high content assay
Details: mouse

## CN[C@@H]1C[C@H]2O[C@@](C)([C@@H]1OC)n1c3ccccc3c3c4c(c5c6ccccc6n2c5c31)C(=O)NC4 [STA, staurosporine, reference compound]
  IC50 at 72 h: 3.4 ± 1.3 nM
